PubChem BioAssay AID686937 | Drosophila RNAi Screening Center – 2013
The screen tested about 23,000 reagents; this is an unselected part of those with a known target gene and a result. 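Reduced-secretion tags in replicate 1 do not always agree with the z-scores; no criterion for assigning the tags was given.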 The numbers tell different reagents against one gene apart. Names joined by + are all predicted targets of the reagent. Not all columns of the deposit are shown. Not stated in the record: the amount of reagent.

- Purpose: 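Genes in the fly needed for secretion of protein constitutively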 (primary screen)
- Cells: Drosophila S2 cells expressing secreted horseradish peroxidase
- Reagent: long dsRNA against Drosophila genes
- Duration: about 5.5 days (5 days dsRNA, then 12 h reporter induction)
- Challenge: reporter expression induced after 5 days of dsRNA, read 12 h later; inducer not stated
- Detection: 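Chemiluminescent measurement of peroxidase in the medium 12 h after reporter induction, following 5 days of dsRNA, given as a z-score per plate; higher means more secretion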
- Direction: z-score: higher = more reporter secreted into medium

predicted target | reagent no. | z-score, replicate 1 | z-score, replicate 2 | z-score, replicate 3
CG6574 (GeneID 41308) | 1 | 0.11 | 0.33 | –
CG12860 (GeneID 36629) | 1 | 0.13 | 0.18 | –
CG3650 (GeneID 37974) | 1 | 0.24 | 0.24 | –
cpo (GeneID 45840) | 1 | 0.25 | 0.21 | –
cpo (GeneID 45840) | 2 | -0.37 | -0.17 | –
cpo (GeneID 45840) | 3 | -2.71 | -3.18 | –
cpo (GeneID 45840) | 4 | -3.95 | -2.23 | –
cpo (GeneID 45840) | 5 | -2.81 | -2.97 | –
CG31952 (GeneID 326179) | 1 | 0.24 | 0.27 | –
CG31952 (GeneID 326179) | 2 | 0.19 | 0 | –
CG9483 (GeneID 34209) | 1 | 0 | 0.36 | –
Spt3 (GeneID 41461) | 1 | 0.14 | 0.4 | –
CG31436 (GeneID 318734) | 1 | 0.23 | 0.25 | –
Arfrp1 (GeneID 31841) | 1 | -0.55 | -0.91 | –
GNBP-like3 (GeneID 37313) | 1 | 0.29 | 0.09 | –
PDCD-5 (GeneID 39776) | 1 | 0.46 | 0.24 | –
CG7611 (GeneID 40386) | 1 | 0.34 | 0.48 | 0.71
RhoGAP92B (GeneID 42371) | 1 | 0.33 | 0.49 | –
RhoGAP92B (GeneID 42371) | 2 | 0.33 | 0.27 | –
CG12439 (GeneID 34234) | 1 | 0.06 | 0 | –
noi (GeneID 40678) | 1 | -3.83 | -1.81 | –
Rh2 (GeneID 42261) | 1 | 0.47 | 0.4 | –
Ets98B (GeneID 43334) | 1 | 0.51 | 0.33 | -0.05
vilya (GeneID 31264) | 1 | 0.06 | 0.27 | –
geko (GeneID 50263) | 1 | 0.13 | 0.08 | –
geko (GeneID 50263) | 2 | 0.12 | -0.05 | –
CG4230 (GeneID 33743) | 1 | 0.09 | 0.32 | –
Or45b (GeneID 35980) | 1 | 0.36 | 0.37 | –
Ric (GeneID 36776) | 1 | 0.38 | -0.39 | –
Mms19 (GeneID 40626) | 1 | 0.38 | 0.51 | –
CG13082 (GeneID 35244) | 1 | 0.27 | 0.3 | –
CG42784 (GeneID 326165) | 1 | 0.07 | 0.18 | –
CG42784 (GeneID 326165) | 2 | -0.55 | -1.34 | –
CG42784 (GeneID 326165) | 3 | 0.37 | 1.08 | –
CG42784 (GeneID 326165) | 4 | -0.22 | -0.22 | –
CG5969 (GeneID 40269) | 1 | -0.21 | -0.26 | –
CG8112 (GeneID 41033) | 1 | 0.34 | 0.18 | –
CG4069 (GeneID 39437) | 1 | -0.07 | 0.01 | –
Acsx1L (GeneID 42351) | 1 | 0.34 | 0.22 | –
Mvl (GeneID 42490) | 1 | 0.29 | 0.39 | –
CG15347 (GeneID 31779) | 1 | 0.18 | 0.58 | –
ogre (GeneID 45382) | 1 | 0.29 | 0.44 | –
red (GeneID 41738) | 1 | -1 | -0.42 | –
CG1986 (GeneID 31925) | 1 | 0.05 | -1.1 | –
Lint-1 + rtv | 1 | 0.2 | 0.4 | –
myd (GeneID 42303) | 1 | -0.72 | -1.37 | –
myd (GeneID 42303) | 2 | 0.31 | 0.41 | –
CG7333 (GeneID 42334) | 1 | 0.48 | 0.54 | –
Treh (GeneID 45368) | 1 | 0.33 | 0.23 | –
CG34300 (GeneID 5740334) | 1 | -0.11 | 0.45 | –
Gmd (GeneID 33716) | 1 | -0.55 | -0.35 | –
ND-B22 (GeneID 34747) | 1 | -0.52 | 0.05 | –
CG15330 (GeneID 31715) | 1 | 0.31 | 0.54 | –
Cec2 (GeneID 3772199) | 1 | 0.35 | -0.05 | –
Gr10a (GeneID 117501) | 1 | 0.74 | 0.52 | –
Gr10a (GeneID 117501) | 2 | 0.12 | -0.7 | –
r2d2 (GeneID 34066) | 1 | -0.15 | 0.2 | –
Son (GeneID 41159) | 1 | 0.38 | 0.46 | –
natalisin (GeneID 5740700) | 1 | -1.59 | -2.52 | –
natalisin (GeneID 5740700) | 2 | 0.67 | 0.8 | –
Trmt112 (GeneID 40343) | 1 | 0.29 | -0.03 | –
CG1344 (GeneID 35500) | 1 | 0.19 | 0.35 | –
yellow-f2 (GeneID 41596) | 1 | 0.15 | 0.34 | –
Osi10b (GeneID 40764) | 1 | 0.55 | 0.53 | –
Lnpk (GeneID 35842) | 1 | 0.01 | 0.4 | –
CG13358 (GeneID 31029) | 1 | 0.48 | 0.38 | –
CG12477 (GeneID 40040) | 1 | 0.28 | 0.06 | –
Karybeta3 (GeneID 40581) | 1 | -0.31 | -0.47 | –
Teh2 (GeneID 38502) | 1 | 0.33 | 0.31 | –
CG10862 (GeneID 38437) | 1 | -0.19 | 0.05 | –
Tmem131 (GeneID 36761) | 1 | 0.35 | 0.31 | –
CRAT (GeneID 40787) | 1 | 0.24 | 0.25 | –
Cht5 (GeneID 41687) | 1 | 0.48 | 0.61 | 0.03
up (GeneID 32314) | 1 | 0.39 | 0.07 | –
CG13692 (GeneID 33216) | 1 | 0.37 | 0.36 | –
GAPcenA (GeneID 38945) | 1 | 0.22 | 0.4 | –
CG11737 (GeneID 41009) | 1 | -0.13 | -0.12 | –
CG10013 (GeneID 41494) | 1 | 0.3 | 0.46 | –
mGluR (GeneID 43838) | 1 | 0.22 | 0.34 | –
Pal1 (GeneID 36033) | 1 | 0.5 | 0.41 | –
CG6277 (GeneID 43251) | 1 | 0.2 | 0.42 | –
Vps37B (GeneID 40624) | 1 | -0.15 | 0.06 | –

Records above whose target name begins with N or n (4):
predicted target | reagent no. | z-score, replicate 1 | z-score, replicate 2 | z-score, replicate 3
noi (GeneID 40678) | 1 | -3.83 | -1.81 | –
ND-B22 (GeneID 34747) | 1 | -0.52 | 0.05 | –
natalisin (GeneID 5740700) | 1 | -1.59 | -2.52 | –
natalisin (GeneID 5740700) | 2 | 0.67 | 0.8 | –
